Results are given in words; binding and its absence hold for the method and conditions named. Some results given as binding are weak or reduced against the parent protein; the word gives no strength.
Key:
[1] = target: soluble cynomolgus (Macaca fascicularis) RON protein (cynomolgus (Macaca fascicularis)); experiment: ELISA: serial dilutions of MSP on plate-coated soluble cyno RON
[2] = target: soluble human RON protein (R&D Systems, catalog 1947) (human) (UniProt Q04912); experiment: ELISA: serial dilutions of MSP on plate-coated soluble human RON

By UniProt entry, the sequences of proteins in these tests, tags left out. Where a name states a change or a piece, a line headed by the entry shows the natural chain unless it says otherwise. Residues count along the entry.
UniProt Q04912: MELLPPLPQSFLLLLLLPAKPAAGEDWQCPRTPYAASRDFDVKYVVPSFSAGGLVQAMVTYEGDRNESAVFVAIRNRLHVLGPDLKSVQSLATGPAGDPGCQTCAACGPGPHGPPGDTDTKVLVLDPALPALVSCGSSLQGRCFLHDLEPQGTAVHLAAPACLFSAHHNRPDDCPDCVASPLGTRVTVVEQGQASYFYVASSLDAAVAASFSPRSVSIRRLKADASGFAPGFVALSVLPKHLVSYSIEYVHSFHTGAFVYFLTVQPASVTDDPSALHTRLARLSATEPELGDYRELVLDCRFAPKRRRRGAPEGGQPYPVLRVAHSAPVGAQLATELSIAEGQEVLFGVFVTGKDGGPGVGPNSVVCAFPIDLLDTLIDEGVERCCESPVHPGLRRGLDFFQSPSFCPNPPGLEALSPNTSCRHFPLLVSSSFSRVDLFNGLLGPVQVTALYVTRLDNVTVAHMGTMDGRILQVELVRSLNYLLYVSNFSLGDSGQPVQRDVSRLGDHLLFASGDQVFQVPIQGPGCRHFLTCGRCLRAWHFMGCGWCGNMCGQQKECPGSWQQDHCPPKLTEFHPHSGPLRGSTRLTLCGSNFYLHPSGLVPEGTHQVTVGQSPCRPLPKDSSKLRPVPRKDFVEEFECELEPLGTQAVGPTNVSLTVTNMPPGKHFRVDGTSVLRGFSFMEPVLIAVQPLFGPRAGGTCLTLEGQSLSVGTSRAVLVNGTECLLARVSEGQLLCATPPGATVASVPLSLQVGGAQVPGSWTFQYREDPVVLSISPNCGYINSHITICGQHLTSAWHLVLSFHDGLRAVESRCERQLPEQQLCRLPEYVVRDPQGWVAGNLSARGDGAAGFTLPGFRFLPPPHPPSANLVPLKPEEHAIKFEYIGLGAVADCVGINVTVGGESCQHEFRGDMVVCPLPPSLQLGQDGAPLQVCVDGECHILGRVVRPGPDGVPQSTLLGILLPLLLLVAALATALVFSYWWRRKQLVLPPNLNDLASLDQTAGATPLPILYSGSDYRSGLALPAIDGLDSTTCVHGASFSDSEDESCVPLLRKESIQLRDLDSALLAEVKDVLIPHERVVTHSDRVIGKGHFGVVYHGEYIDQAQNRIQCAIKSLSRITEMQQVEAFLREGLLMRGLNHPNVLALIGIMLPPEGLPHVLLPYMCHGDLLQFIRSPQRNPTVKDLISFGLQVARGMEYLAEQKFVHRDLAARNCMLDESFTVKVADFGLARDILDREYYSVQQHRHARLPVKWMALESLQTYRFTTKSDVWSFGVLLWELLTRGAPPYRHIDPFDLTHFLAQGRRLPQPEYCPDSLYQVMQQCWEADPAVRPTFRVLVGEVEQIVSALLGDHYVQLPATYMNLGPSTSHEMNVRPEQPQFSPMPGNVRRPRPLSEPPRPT
UniProt P26927, residues 19-711: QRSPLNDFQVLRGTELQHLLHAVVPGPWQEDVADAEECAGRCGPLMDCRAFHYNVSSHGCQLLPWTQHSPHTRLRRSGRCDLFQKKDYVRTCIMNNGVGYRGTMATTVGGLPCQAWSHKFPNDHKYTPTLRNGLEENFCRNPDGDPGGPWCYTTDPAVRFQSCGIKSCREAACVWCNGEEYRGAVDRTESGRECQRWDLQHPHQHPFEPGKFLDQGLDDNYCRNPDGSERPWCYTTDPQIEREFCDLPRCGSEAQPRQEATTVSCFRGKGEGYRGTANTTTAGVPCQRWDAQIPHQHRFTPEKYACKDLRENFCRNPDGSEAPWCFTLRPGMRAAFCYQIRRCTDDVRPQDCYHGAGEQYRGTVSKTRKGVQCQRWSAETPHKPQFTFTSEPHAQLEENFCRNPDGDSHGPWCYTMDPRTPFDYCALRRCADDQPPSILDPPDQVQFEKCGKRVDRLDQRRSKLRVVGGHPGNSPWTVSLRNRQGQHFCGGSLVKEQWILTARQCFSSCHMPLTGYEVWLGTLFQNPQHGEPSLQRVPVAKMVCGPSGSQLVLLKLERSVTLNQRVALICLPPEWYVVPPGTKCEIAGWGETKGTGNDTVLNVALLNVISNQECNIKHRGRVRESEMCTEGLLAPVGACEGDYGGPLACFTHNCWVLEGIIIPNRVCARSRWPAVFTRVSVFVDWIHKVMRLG

human macrophage stimulating protein (MSP) (R&D Systems cat. #4306-MS) (from UniProt P26927 19-711) (ligand)
binding [1]: binds | binding [2]: binds

Reference: US20090226442A1
